The values that follow come from paper PMC3475670.

By UniProt entry, the sequences of proteins in these tests, tags left out.
UniProt Q9UN81: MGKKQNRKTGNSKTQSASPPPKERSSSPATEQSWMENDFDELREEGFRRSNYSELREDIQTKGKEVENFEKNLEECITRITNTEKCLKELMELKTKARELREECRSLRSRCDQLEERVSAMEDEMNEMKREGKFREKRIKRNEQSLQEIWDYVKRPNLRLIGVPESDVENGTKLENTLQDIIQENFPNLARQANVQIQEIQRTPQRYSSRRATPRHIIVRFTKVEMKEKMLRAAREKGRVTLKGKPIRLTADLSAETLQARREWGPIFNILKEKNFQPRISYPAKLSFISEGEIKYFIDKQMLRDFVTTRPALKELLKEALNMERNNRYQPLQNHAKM

Results are given in words; binding and its absence hold for the method and conditions named. In cells and extracts the contact can be indirect. Where a sequence is shown, tags or fusion partners need not be part of it.

The test deals with T1, V5-tagged fibrillarin (FBL) (UniProt P22087).
T1 sequence: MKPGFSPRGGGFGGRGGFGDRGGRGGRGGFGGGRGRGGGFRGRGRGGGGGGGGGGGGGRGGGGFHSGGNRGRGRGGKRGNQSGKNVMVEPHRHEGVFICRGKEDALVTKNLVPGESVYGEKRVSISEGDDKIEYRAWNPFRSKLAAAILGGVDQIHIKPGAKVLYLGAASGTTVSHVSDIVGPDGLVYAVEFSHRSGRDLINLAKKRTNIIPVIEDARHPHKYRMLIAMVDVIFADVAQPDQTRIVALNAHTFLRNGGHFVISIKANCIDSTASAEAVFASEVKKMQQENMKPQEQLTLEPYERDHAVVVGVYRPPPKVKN
The test is described as follows: co-IP; V5-tagged proteins transfected in 2102Ep cells and precipitated on Protein G Agarose/Salmon Sperm DNA; endogenous ORF1p detected with the α-ORF1p AH40.1 antibody.

In the case of “endogenous L1 ORF1 protein (from UniProt Q9UN81 1-338)”, the binding result is given as “no binding”.
